The text below walks through data of paper PMC5895659, “Mechanistic and Structural Insights Into the Unique TetR-Dependent Regulation of a Drug Efflux Pump in Mycobacterium abscessus” (Frontiers in Microbiology, 2018).

For at least one entry, the source does not settle the construct or the ends of the probe. A weaker result is weaker than the reference pair of the same experiment. Protein sequences can lack the tags named with them.

The data set concerns the target T1, MAB_4384 (TetR regulator) (UniProt B1MJU8).
T1 sequence (looked up, limits assumed): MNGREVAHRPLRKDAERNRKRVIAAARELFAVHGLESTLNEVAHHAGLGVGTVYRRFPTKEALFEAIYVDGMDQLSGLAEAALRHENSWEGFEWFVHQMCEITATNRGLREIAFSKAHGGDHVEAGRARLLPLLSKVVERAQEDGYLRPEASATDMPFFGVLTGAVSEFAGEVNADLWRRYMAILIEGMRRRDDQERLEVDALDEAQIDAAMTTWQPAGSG
As to the kind of experiment: EMSA. The note with it: EMSA: 280 nM fluorescein probe, 1X TAE, 1 h, room temperature, 6% native PAGE in 1X TAE, recombinant protein. (In general: A gel shift assay detects complexes by their altered migration in electrophoresis.)

The mark [1] stands for this setting: similar to Probe 6, label: 5' fluorescein.

“CACTTCGCCATAAGCAGATTGACTCTATCTGCTTTTACCCATAGA (double strand) [Probe 8 (di-nucleotide substitutions)]”: the binding result under setting [1] is recorded as “binds more weakly”.
On to “CACTTCGCCATAAGTGGATATGCATGACTCTCTGAAGATCCACTTTTACCCATAGA (double strand) [Probe 5 (spacer increased by 10 nt)]”, for which the binding result (label: 5' fluorescein) is listed as “binds more weakly”.
For “CACTTCGCCATAAGTGGATCATCCACTTTTACCCATAGA (double strand) [Probe 4 (repeats shortened by six nt)]”, the binding result (severely impeded even at 3.5 uM protein, label: 5' fluorescein) is “binds more weakly”.
In the case of “CACTTCGCCATAAGTGGGCTGACTCTGCCCACTTTTACCCATAGA (double strand) [Probe 7 (di-nucleotide substitutions)]”, the binding result under setting [1] is listed as “binds more weakly”.
With “CACTTCGCCATGGACTTCGTGACTCTATCCACTTTTACCCATAGA (double strand) [Probe 2 (only right repeat conserved)]”, the binding result (partial shift at 1.75 uM protein, label: 5' fluorescein) is listed as “binds more weakly”.
As for “CACTTCGCCATGGGTGGATTGACTCTATCCACCCTTACCCATAGA (double strand) [Probe 6 (substitutions at repeat extremities)]”, the binding result (pronounced shift alteration, label: 5' …) is on record as “binds more weakly”.
